Assay results from article PMC8233366.
Results are given in words; binding and its absence hold for the method and conditions named. Binding seen in cells or lysates may run through a third protein. A yes stands for co-enrichment or nearness to the bait. Other partners may have been found. For some of these results: A no says only that the protein was not detected with the bait. Sequences can lack the tags named with a protein.

Protein sequences, listed by entry. Tags and fused reporters are not part of them.
UniProt Q86US8: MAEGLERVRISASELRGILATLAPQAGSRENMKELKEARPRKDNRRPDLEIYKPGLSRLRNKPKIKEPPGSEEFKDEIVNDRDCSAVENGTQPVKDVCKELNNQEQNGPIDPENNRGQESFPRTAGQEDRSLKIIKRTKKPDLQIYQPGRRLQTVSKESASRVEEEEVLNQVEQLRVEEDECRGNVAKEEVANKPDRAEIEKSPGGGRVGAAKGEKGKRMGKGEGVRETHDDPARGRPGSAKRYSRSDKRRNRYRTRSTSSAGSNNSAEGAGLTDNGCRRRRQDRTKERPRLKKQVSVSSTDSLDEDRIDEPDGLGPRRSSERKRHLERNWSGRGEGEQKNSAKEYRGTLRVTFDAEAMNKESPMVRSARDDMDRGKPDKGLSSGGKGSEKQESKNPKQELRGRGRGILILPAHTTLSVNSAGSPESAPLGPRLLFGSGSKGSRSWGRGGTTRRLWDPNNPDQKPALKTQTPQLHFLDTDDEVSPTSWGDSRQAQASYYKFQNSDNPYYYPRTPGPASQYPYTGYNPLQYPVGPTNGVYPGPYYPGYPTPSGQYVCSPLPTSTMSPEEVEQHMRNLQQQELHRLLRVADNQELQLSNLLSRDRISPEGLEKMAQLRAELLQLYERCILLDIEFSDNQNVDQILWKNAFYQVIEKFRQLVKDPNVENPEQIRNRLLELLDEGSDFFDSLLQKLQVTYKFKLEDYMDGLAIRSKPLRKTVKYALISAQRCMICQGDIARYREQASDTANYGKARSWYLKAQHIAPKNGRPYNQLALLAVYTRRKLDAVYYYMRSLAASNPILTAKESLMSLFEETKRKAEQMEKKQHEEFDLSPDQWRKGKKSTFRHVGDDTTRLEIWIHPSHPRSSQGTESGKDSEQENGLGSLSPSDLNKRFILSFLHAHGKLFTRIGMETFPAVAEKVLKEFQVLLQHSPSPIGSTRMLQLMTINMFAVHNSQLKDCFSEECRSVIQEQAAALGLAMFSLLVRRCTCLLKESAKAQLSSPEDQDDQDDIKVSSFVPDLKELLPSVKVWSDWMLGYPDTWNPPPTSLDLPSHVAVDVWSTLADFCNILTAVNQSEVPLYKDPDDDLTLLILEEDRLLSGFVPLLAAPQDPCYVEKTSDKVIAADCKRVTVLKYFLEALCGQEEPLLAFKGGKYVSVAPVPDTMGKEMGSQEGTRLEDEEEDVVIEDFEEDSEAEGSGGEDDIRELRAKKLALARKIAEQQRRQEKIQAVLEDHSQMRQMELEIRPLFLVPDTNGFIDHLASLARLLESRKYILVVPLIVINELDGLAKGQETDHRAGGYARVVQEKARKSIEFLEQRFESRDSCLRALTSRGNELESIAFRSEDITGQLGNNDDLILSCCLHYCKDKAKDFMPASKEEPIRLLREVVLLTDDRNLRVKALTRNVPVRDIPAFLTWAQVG

T1: FLAG-tagged SMG5 1-853 (human) (UniProt Q9UPR3)
T1 sequence: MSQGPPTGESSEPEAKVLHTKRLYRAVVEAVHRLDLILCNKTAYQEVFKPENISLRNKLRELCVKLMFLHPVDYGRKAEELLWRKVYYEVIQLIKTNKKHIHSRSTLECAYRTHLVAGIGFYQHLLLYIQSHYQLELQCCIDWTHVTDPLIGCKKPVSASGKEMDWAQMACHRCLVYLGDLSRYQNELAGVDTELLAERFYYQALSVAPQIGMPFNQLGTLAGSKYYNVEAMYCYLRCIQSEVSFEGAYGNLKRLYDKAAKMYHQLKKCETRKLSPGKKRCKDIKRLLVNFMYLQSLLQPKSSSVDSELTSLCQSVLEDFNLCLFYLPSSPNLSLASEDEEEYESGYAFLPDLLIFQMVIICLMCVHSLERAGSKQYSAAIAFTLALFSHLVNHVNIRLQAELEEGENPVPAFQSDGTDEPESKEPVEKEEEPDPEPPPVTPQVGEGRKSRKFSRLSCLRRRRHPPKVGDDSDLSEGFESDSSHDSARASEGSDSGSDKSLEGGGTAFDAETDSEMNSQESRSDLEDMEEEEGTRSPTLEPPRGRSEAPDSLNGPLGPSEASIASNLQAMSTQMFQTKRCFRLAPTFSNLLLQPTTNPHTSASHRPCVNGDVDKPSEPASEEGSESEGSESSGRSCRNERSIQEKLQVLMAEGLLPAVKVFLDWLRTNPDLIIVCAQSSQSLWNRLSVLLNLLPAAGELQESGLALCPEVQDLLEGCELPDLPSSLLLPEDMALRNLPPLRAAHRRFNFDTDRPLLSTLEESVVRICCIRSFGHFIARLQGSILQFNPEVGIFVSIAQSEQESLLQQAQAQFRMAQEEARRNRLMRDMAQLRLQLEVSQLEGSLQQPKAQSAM

T2: FLAG-tagged SMG5 WT (human) (UniProt Q9UPR3)
T2 sequence: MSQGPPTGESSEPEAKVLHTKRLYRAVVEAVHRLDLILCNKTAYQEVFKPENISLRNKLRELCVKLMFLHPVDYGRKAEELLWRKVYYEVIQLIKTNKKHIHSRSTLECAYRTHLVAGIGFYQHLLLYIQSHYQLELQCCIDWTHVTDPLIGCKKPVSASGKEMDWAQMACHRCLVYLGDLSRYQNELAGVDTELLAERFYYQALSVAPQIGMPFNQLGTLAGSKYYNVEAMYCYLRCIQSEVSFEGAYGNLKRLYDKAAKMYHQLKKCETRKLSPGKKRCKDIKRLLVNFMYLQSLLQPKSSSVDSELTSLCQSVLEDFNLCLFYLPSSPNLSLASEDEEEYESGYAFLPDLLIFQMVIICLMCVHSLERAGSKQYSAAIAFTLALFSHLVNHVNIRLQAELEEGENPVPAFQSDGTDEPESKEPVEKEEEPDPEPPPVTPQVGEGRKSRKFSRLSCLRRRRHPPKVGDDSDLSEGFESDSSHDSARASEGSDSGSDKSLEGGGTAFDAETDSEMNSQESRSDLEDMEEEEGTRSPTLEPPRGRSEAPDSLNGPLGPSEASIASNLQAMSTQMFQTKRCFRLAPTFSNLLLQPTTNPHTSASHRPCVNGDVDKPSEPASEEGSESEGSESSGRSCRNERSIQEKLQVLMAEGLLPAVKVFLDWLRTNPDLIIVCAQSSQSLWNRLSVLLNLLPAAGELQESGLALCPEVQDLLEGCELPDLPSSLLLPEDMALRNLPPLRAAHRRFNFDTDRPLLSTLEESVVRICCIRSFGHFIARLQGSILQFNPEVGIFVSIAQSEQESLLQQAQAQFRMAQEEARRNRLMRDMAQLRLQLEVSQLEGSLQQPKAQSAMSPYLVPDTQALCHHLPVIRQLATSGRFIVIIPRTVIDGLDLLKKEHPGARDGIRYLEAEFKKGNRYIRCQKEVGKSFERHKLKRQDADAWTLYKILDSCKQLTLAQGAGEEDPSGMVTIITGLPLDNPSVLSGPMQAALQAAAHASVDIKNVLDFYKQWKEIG

T3: FLAG-TurboID-UPF1 (UniProt Q92900)
T3 sequence: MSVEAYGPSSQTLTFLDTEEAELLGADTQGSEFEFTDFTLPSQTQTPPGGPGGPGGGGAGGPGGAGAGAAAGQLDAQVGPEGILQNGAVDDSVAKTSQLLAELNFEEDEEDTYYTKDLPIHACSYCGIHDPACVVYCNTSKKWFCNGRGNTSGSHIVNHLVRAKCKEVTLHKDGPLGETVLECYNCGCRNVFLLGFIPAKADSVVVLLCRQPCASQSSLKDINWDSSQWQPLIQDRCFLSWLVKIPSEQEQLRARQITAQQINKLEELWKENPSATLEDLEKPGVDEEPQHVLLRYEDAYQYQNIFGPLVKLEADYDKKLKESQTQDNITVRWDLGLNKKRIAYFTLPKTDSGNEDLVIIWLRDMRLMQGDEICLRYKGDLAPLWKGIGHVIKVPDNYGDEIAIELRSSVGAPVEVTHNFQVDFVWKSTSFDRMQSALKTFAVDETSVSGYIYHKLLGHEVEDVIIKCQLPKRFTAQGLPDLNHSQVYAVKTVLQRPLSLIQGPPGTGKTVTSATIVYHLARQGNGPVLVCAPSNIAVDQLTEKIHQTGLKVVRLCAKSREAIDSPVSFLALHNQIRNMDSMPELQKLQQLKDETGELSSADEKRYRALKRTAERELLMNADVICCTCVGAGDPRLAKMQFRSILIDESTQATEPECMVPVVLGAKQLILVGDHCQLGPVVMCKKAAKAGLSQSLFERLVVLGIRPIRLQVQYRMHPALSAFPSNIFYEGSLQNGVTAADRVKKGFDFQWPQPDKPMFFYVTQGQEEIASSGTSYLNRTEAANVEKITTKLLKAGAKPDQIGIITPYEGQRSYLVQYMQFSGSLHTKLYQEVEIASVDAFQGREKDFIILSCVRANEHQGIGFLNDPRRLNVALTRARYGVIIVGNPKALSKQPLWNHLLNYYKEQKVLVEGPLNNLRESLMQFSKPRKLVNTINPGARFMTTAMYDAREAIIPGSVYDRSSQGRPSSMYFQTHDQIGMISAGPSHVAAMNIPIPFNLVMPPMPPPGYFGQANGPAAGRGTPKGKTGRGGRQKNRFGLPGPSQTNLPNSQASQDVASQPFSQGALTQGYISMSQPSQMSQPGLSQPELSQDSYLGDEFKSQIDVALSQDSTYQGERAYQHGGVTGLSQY

T4: FLAG-tagged SMG5 WT (human), Q9UPR3
T4 chain: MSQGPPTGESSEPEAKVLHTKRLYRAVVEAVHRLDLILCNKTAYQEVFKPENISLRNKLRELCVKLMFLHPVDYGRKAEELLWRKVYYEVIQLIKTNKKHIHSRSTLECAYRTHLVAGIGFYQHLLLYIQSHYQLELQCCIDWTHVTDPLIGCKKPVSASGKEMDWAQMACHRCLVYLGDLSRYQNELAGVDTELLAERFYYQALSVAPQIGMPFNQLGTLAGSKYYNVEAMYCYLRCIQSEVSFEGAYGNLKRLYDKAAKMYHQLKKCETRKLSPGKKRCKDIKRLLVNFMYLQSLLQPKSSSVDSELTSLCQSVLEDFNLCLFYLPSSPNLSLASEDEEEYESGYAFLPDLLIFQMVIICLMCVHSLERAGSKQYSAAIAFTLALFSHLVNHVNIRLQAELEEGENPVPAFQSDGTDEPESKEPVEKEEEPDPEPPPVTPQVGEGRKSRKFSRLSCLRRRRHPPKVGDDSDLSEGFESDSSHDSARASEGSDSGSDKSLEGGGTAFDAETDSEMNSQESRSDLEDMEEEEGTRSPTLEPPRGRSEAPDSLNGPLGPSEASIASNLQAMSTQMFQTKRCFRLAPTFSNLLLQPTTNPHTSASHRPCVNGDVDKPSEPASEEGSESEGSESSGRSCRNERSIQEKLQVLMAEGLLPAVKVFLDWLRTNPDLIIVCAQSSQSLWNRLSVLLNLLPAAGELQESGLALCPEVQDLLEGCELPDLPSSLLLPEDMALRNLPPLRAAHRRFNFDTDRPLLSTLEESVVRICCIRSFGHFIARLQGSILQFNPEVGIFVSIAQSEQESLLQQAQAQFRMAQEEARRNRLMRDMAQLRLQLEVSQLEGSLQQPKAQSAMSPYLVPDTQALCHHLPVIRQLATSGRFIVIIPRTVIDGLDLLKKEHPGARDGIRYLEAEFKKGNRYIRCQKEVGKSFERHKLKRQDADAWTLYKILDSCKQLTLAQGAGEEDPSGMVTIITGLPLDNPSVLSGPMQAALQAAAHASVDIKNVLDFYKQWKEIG


Experiments:
[1] = target: T1, FLAG-tagged SMG5 1-853 (human); assay: affinity purification with mass spectrometry; FLAG-tagged SMG5 WT or 1-853 or FLAG control in WT 293 cells, induced 72 h with doxycycline; FLAG IP, mild wash buffer, elution with FLAG peptide; label-free mass spectrometry
[2] = target: T2, FLAG-tagged SMG5 WT (human); assay: as above
FLAG-TurboID-UPF1 [3] = target: T3, FLAG-TurboID-UPF1; assay: proximity labelling; FLAG-TurboID-UPF1 against FLAG-TurboID control in WT cells; 50 µM biotin for 15 min; streptavidin beads; label-free mass spectrometry
FLAG-TurboID-UPF1 [4] = target: T3, FLAG-TurboID-UPF1; assay: proximity labelling; FLAG-TurboID-UPF1 or FLAG-TurboID control in WT and SMG7 KO cells with control or SMG5 KD; 50 µM biotin for 15 min; streptavidin beads; western blot (Fig. 6b)
[5] = target: T4, FLAG-tagged SMG5 WT (human), Q9UPR3; assay: affinity purification with mass spectrometry; FLAG-tagged SMG5 WT or 1-853 or FLAG control in WT 293 cells, induced 72 h with doxycycline; FLAG IP, mild wash buffer, elution with FLAG peptide; label-free mass spectrometry; details: remark: other sources report otherwise

Molecule | binding [1] | binding [2] | binding (FLAG-TurboID-UPF1 [3]) | binding (FLAG-TurboID-UPF1 [4]) | binding [5]
SMG6 (endogenous) (from UniProt Q86US8 1-1419) | no binding | no binding |  |  | 
SMG7 (endogenous) (protein, UniProt Q92540 1-1137) MSLQSAQYLRQAEVLKADMTDSKLGPAEVWTSRQALQDLYQKMLVTDLEYALDKKVEQDLWNHAFKNQITTLQGQAKNRANPNRSEVQANLSLFLEAASGFYTQLLQELCTVFNVDLPCRVKSSQLGIISNKQTHTSAIVKPQSSSCSYICQHCLVHLGDIARYRNQTSQAESYYRHAAQLVPSNGQPYNQLAILASSKGDHLTTIFYYCRSIAVKFPFPAASTNLQKALSKALESRDEVKTKWGVSDFIKAFIKFHGHVYLSKSLEKLSPLREKLEEQFKRLLFQKAFNSQQLVHVTVINLFQLHHLRDFSNETEQHTYSQDEQLCWTQLLALFMSFLGILCKCPLQNESQEESYNAYPLPAVKVSMDWLRLRPRVFQEAVVDERQYIWPWLISLLNSFHPHEEDLSSISATPLPEEFELQGFLALRPSFRNLDFSKGHQGITGDKEGQQRRIRQQRLISIGKWIADNQPRLIQCENEVGKLLFITEIPELILEDPSEAKENLILQETSVIESLAADGSPGLKSVLSTSRNLSNNCDTGEKPVVTFKENIKTREVNRDQGRSFPPKEVRRDYSKGITVTKNDGKKDNNKRKTETKKCTLEKLQETGKQNVAVQVKSQTELRKTPVSEARKTPVTQTPTQASNSQFIPIHHPGAFPPLPSRPGFPPPTYVIPPPVAFSMGSGYTFPAGVSVPGTFLQPTAHSPAGNQVQAGKQSHIPYSQQRPSGPGPMNQGPQQSQPPSQQPLTSLPAQPTAQSTSQLQVQALTQQQQSPTKAVPALGKSPPHHSGFQQYQQADASKQLWNPPQVQGPLGKIMPVKQPYYLQTQDPIKLFEPSLQPPVMQQQPLEKKMKPFPMEPYNHNPSEVKVPEFYWDSSYSMADNRSVMAQQANIDRRGKRSPGVFRPEQDPVPRMPFEKSLLEKPSELMSHSSSFLSLTGFSLNQERYPNNSMFNEVYGKNLTSSSKAELSPSMAPQETSLYSLFEGTPWSPSLPASSDHSTPASQSPHSSNPSSLPSSPPTHNHNSVPFSNFGPIGTPDNRDRRTADRWKTDKPAMGGFGIDYLSATSSSESSWHQASTPSGTWTGHGPSMEDSSAVLMESLKSIWSSSMMHPGPSALEQLLMQQKQKQQRGQGTMNPPH | binds | binds |  |  | 
UPF3B (endogenous) (protein, UniProt Q9BZI7 1-483) MKEEKEHRPKEKRVTLLTPAGATGSGGGTSGDSSKGEDKQDRNKEKKEALSKVVIRRLPPTLTKEQLQEHLQPMPEHDYFEFFSNDTSLYPHMYARAYINFKNQEDIILFRDRFDGYVFLDNKGQEYPAIVEFAPFQKAAKKKTKKRDTKVGTIDDDPEYRKFLESYATDNEKMTSTPETLLEEIEAKNRELIAKKTTPLLSFLKNKQRMREEKREERRRREIERKRQREEERRKWKEEEKRKRKDIEKLKKIDRIPERDKLKDEPKIKVHRFLLQAVNQKNLLKKPEKGDEKELDKREKAKKLDKENLSDERASGQSCTLPKRSDSELKDEKPKRPEDESGRDYREREREYERDQERILRERERLKRQEEERRRQKERYEKEKTFKRKEEEMKKEKDTLRDKGKKAESTESIGSSEKTEKKEEVVKRDRIRNKDRPAMQLYQPGARSRNRLCPPDDSTKSGDSAAERKQESGISHRKEGGEE |  |  | binds | binds | 
PNRC2 (endogenous), Q9NPJ4 1-139 (protein) MGGGERYNIPAPQSRNVSKNQQQLNRQKTKEQNSQMKIVHKKKERGHGYNSSAAAWQAMQNGGKNKNFPNNQSWNSSLSGPRLLFKSQANQNYAGAKFSEPPSPSVLPKPPSHWVPVSFNPSDKEIMTFQLKTLLKVQV |  |  |  |  | no binding
